{"source": "patent US20110246078A1", "about": "“MITOCHONDRIA KATP ION CHANNEL AS A DRUG TARGET FOR PREVENTING LIVER DISEASES AND METHODS TO SCREEN MITOCHONDRIA KATP MODULATORS” (priority 2010, published 2011)", "test_system": "pinacidil induced DMR signal in HepG2C3A cells", "assay": "Label-free RWG biosensor DMR assay, modulation of the pinacidil induced DMR signal", "type": "cell-based, human", "conditions": "pre-incubation with compound, pinacidil 40 μM", "method": "Transfection of siRNAs was performed using N-TER Nanoparticle siRNA Transfection System (Cat#N2913) from Sigma-Aldrich Inc. following the manufacturer's instructions. Briefly, 5000 cells were plated in each well of Epic 384-well plates. Cells were transfected with 50 nM siRNA the next day and incubated in siRNA containing medium for 24 hrs before replaced with fresh cell culture medium. Epic cell assay was performed 48 hours after transfection.\nEpic® wavelength interrogation system (Corning Inc., Corning, N.Y.) was used for whole cell sensing. This system consists of a temperature-control unit, an optical detection unit, and an on-board liquid handling unit with robotics. The detection unit is centered on integrated fiber optics, and enables kinetic measures of cellular responses with a time interval of ˜15sec. […]\nFor biosensor cellular assays, compound solutions were made by diluting the stored concentrated solutions with the HBSS (1× Hanks balanced salt solution, plus 20 mM Hepes, pH 7.1), and transferred into a 384well polypropylene compound storage plate to prepare a compound source plate. […] Both the cell assay plate and the compound source plate(s) were then incubated in the hotel of the reader system. After incubation the baseline wavelengths of all biosensors in the cell assay microplate were recorded and normalized to zero. […]"}
{"smiles": "Cc1cnc(C(=O)NCCc2ccc(S(=O)(=O)NC(=O)NC3CCCCC3)cc2)cn1", "note": "[glipizide]", "values": [{"measurement": "effect on the pinacidil induced DMR signal", "result": "dose-dependently inhibited"}]}
